Drawing on article PMC7819943, “Rice protein-binding microarrays: a tool to detect cis-acting elements near promoter regions in rice”, this text covers binding signal for 42 sequences.

Chains of the proteins cited; added tags and fusions are not shown.
UniProt Q0JBA9, entry or part of it: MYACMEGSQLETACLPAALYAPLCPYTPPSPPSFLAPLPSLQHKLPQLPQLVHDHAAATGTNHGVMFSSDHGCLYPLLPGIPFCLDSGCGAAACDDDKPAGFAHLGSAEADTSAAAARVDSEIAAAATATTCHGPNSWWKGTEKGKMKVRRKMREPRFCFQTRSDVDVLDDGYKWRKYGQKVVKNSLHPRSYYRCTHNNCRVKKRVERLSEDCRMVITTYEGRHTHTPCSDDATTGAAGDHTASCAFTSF

The other results are listed elsewhere or left out.

For this assay, the target named is OsWRKY34 (Oryza sativa, UniProt Q0JBA9 1-250). The assay can be described thus: protein-binding microarray (RPBM); PBS, 2% BSA, 51.3 ng/ul salmon testes DNA, 50 uM zinc acetate, 200 nM TF, 25 C, 1 h; high values mean tight binding. The following applies: protein: recombinant; tags: N-terminal polyhistidine and DsRed monomer fusion (pET32a); label: CyDye5-dUTP incorporated in the synthesized complementary strand; 3' TTTTT single-stranded linker to array surface; dsDNA, one strand shown. Summed up:
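The binding signal is fluorescence intensity per feature, in arbitrary units, read on an Axon 4000B scanner. Polyhistidine- and DsRed-tagged transcription factors (N-terminal fusions) from E. coli BL21-CodonPlus were purified on Ni–NTA and applied at 200 nM for 1 h at 25 °C to a double-stranded, BSA-blocked custom Agilent array in buffer with 50 µM zinc acetate.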
“CCCTTGTTCGTCCCTCTTGCATCGGACGGTGCACGTTTTCCGGAGTCACCTAGTGCAG”: the binding signal is 11900 fluorescence intensity (a.u.).
Regarding “CGGCGTCTCTACCTCTACGAATCAGGTCAGGCTTCGATCCCGGAGTCACCTAGTGCAG”, the binding signal was 8380 fluorescence intensity (a.u.).
As for “TCTCTGGCTCTTTTACCTCAATCTCGTATATACTCTGGTACGGAGTCACCTAGTGCAG”, the binding signal was 8830 fluorescence intensity (a.u.).
The value for “AAAACACTCGGGTATACGTCCACTCGTTTTTTACATGTCACGGAGTCACCTAGTGCAG” was 8820 fluorescence intensity (a.u.).
The value for “ACCGTTCTTAGCTATGGGTTGCCGCCGCAACGGCCTAAATCGGAGTCACCTAGTGCAG” was 8080 fluorescence intensity (a.u.).
Regarding “GCCGCCGCCGCCGTCTGCACCCGCGTCAGCGCTCCACAAACGGAGTCACCTAGTGCAG”, the binding signal was 8680 fluorescence intensity (a.u.).
The value for “TTCCCTACCAGTCTCATCCCAGACTAGTTTTAATCTGACTCGGAGTCACCTAGTGCAG” was 8410 fluorescence intensity (a.u.); that for “GATCCACACCAGATACACGCTCAAAACCCATCTCTGTTCACGGAGTCACCTAGTGCAG” was 9770 fluorescence intensity (a.u.); that for “GATTATGTACAACATTCTTCACTACAATTTTACATTTTGGCGGAGTCACCTAGTGCAG” was 9340 fluorescence intensity (a.u.).
Consider “TCTATATGGACTCTGTCTTTTCTTTTTCTCTCCGATTAATCGGAGTCACCTAGTGCAG”, for which the binding signal is 8460 fluorescence intensity (a.u.).
As to “ATCCGGCCCATCTACCACGAGCTCTTCAGCCCGTCGGCCCCGGAGTCACCTAGTGCAG”, the binding signal is 8460 fluorescence intensity (a.u.).
The value for “CCTCCTCGCCCGCCGCTTCCGCCGATCCCCATCCTAGCCACGGAGTCACCTAGTGCAG” was 8680 fluorescence intensity (a.u.); that for “AATTTTCATTTGCTTTTCGAAGTCCATTTTTCAGTAGTCCCGGAGTCACCTAGTGCAG” was 8400 fluorescence intensity (a.u.).
The value for “TGTCAACCGTAAGCTGCTTGAGCGCGTCGCTTTCTTTCTTCGGAGTCACCTAGTGCAG” was 8060 fluorescence intensity (a.u.); that for “TTTTTTCGGTCTCGGTATCGGTCTTTTCGGTTCGATCTTACGGAGTCACCTAGTGCAG” was 8400 fluorescence intensity (a.u.).
Regarding “AGCTTTGTTGTGCATTTGATTCATTATAACTATGGTTTCTCGGAGTCACCTAGTGCAG”, the binding signal was 10000 fluorescence intensity (a.u.).
The value for “TACGGTTCGTTATAGACGTCTAGTGTTCACTGCTATTTCTCGGAGTCACCTAGTGCAG” was 9340 fluorescence intensity (a.u.); that for “CGAGGAGGTAGATGGGCTCCGGCGCCGGGGTGGGGTGGTGCGGAGTCACCTAGTGCAG” was 8940 fluorescence intensity (a.u.); that for “AGCTCTCTCATGCATTGCCTCGTTTTTCTCTATAGACTATCGGAGTCACCTAGTGCAG” was 11400 fluorescence intensity (a.u.).
“CAGTCGCAGTTTCTACAAAGTTTGACTAAATTTTTCACCCCGGAGTCACCTAGTGCAG”: the binding signal is 9370 fluorescence intensity (a.u.).
For “ATACATTTATTCCTTCTTAGAGTCACTACTCTTCATTGAACGGAGTCACCTAGTGCAG”, the binding signal was 8060 fluorescence intensity (a.u.).
In the case of “CCTGTCCCATCGCACTATCTACCTTCAATTTCTCTCGCGGCGGAGTCACCTAGTGCAG”, the binding signal is 9060 fluorescence intensity (a.u.).
The value for “CCGCGCCGCGCCACGCCACGCCACGCCGAGTTGCCGAGCTCGGAGTCACCTAGTGCAG” was 8580 fluorescence intensity (a.u.); that for “TTATCCTCAGTGAGCTTCAGAGTTTGTTTTTTTTCTGTCCCGGAGTCACCTAGTGCAG” was 10400 fluorescence intensity (a.u.); that for “GCCGCTGTTTGCTCCGCCCCTGAAATACGACCCGGCGGCGCGGAGTCACCTAGTGCAG” was 9030 fluorescence intensity (a.u.).
The value for “TGCCCTCTGACCTCATTTTCAGTCCCTGTTAGGACTTCATCGGAGTCACCTAGTGCAG” was 9820 fluorescence intensity (a.u.).
Consider “TCCTTTTCTTTTCTTTTATTTTTTTTTGTTTTTTCCCGTTCGGAGTCACCTAGTGCAG”, for which the binding signal was 8300 fluorescence intensity (a.u.).
The value for “ACGCGCCATCTTGCACATCTCCCCGCCGTCTCGTGGGCATCGGAGTCACCTAGTGCAG” was 8110 fluorescence intensity (a.u.); that for “CTTAAACGCGTACTCTCATACAATTAATGTATGCTGGATTCGGAGTCACCTAGTGCAG” was 9150 fluorescence intensity (a.u.).
The value for “CCAATTTACAGTCTCAATCCACTCCCACCAATCTTCTCTACGGAGTCACCTAGTGCAG” was 8420 fluorescence intensity (a.u.).
The value for “ACGTTGGATTGGTGGTGGACGGGCGCGATGGGTTGGGGTGCGGAGTCACCTAGTGCAG” was 9930 fluorescence intensity (a.u.); that for “TTGGGTGGAGGATTTGGAATTTGACCGGTTGACTTAGGGTCGGAGTCACCTAGTGCAG” was 11900 fluorescence intensity (a.u.); that for “TTTAGGGATATACATTTCTGGTTTTGTGGTTAAGGGACTTCGGAGTCACCTAGTGCAG” was 8430 fluorescence intensity (a.u.).
Consider “GTGTTCGTCACTTCAGCCCGTTCGAACTGTCTCGTGGCCACGGAGTCACCTAGTGCAG”, for which the binding signal was 9130 fluorescence intensity (a.u.).
With “CCCTGCCGCATCTTCTCATCGCCCTCACGCCCGGCCGGCCCGGAGTCACCTAGTGCAG”, the binding signal was 14300 fluorescence intensity (a.u.).
The value for “CTTCTCTCTCTTCTCTTTTCTCTCCTCTATATTAGCATTTCGGAGTCACCTAGTGCAG” was 9370 fluorescence intensity (a.u.).
As for “CCGCCGCCCACCTCATGCCTTGCGCGGTGCCCGTGAGAGACGGAGTCACCTAGTGCAG”, the binding signal is 8250 fluorescence intensity (a.u.).
“TGTGTTTTTGTGTGTGTGTTTCAGTGTGTCTCTCATCCCTCGGAGTCACCTAGTGCAG”: the binding signal was 9450 fluorescence intensity (a.u.).
For “AACTAAACTCGGCCTCAAATTAGTGTCAAACTTCTCTTGTCGGAGTCACCTAGTGCAG”, the binding signal is 8400 fluorescence intensity (a.u.).
The value for “CCTAGTAACCTACGACTCCCAGGTTCCAACACCACCCATCCGGAGTCACCTAGTGCAG” was 8120 fluorescence intensity (a.u.); that for “ACAAAAATACGAATATTCCGTTCCACGTCGTCTATCCGCGCGGAGTCACCTAGTGCAG” was 9330 fluorescence intensity (a.u.).
“CTTGTACATCTGTCTTGCTAGAGTCTTTCACAAGATTACACGGAGTCACCTAGTGCAG”: the binding signal was 8080 fluorescence intensity (a.u.).
